Experimental data published in PubChem BioAssay AID493014 (National Center for Advancing Translational Sciences (NCATS), 2011).
The list shows a part of the results. These are further read-outs of the screen, such as a control signal, another cell line or another target. No call is given for them. Compounds called inactive in the main read-out are mostly missing here. Potencies come from curve fits of mixed quality, noted in brackets.

Assay: qHTS Assay to Find Inhibitors of Chronic Active B-Cell Receptor Signaling
Settings: ABC-DLBCL IkBa-CBG/CBR reporter, luminescence ratio (green luciferase fused to IkBa over red control in TMD8 lymphoma cells), 4 h
In short: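 Compounds up to 46 uM were incubated four hours with TMD8 cells whose green CBG68 luciferase is fused to IkappaBalpha; red CBR luminescence normalised the signal, and concentration-effect curves were fitted to fusion, red and ratio data.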

[1] = measured here: CBR red luminescence, cell number
[2] = measured here: IkBa-CBG green luminescence

SMILES: Cc1ccc(NC(=O)CN(c2cc(C)cc(C)c2)S(=O)(=O)c2c(C)noc2C)nc1
- AC50 [1]: 11.2 µM [falling, partial curve]

SMILES: Cc1ccc(S(=O)(=O)N2C(=O)C(c3ccccc3)SC2=Nc2ccccc2)cc1 (stereo unspecified)
- AC50 [1]: 16.4 µM [falling, single point]

SMILES: COc1cc(OC)cc(C(=O)OCC(=O)Nc2ccc(F)cc2F)c1
- AC50 [1]: 0.1 µM [rising, full curve, poor fit]

SMILES: O=C(N=Nc1c(O)[nH]c2ccccc12)c1ccc2c(c1)OCO2
- AC50 [1]: 2.51 µM [falling, full curve, poor fit]

SMILES: Cn1ccnc1Sc1cc(Cl)ccc1[N+](=O)[O-]
- AC50 [1]: 14.1 µM [rising, single point]

SMILES: O=C(O)CCCN1C(=O)/C(=C/c2ccc(-c3nc4ccccc4s3)o2)SC1=S
- AC50 [1]: 7.31 µM [falling, partial curve, poor fit]

SMILES: CCOc1cccc(-c2nc3cc(C)ccc3o2)c1
- AC50 [1]: 1.26 µM [rising, full curve, poor fit]

SMILES: CCCc1nnc(SCC(=O)NC2CC2)n1C
- AC50 [1]: 35.5 µM [falling, single point]

SMILES: CCOc1ccccc1NC(=O)C1C2C=CC(C2)C1C(=O)O (stereo unspecified)
- AC50 [1]: 0.231 µM [rising, full curve, poor fit]

SMILES: COc1cc2[nH]c(C(=O)N3CCc4ccccc4C3)cc2c(OC)c1OC
- AC50 [1]: 2.82 µM [falling, full curve, poor fit]

SMILES: CCN(c1ccccc1)S(=O)(=O)c1ccc(N2CCN(c3ccc(O)cc3)CC2)nc1
- AC50 [1]: 29.1 µM [falling, single point]

SMILES: CCOC(=O)Cc1csc(NC(=S)NC(=O)c2ccc(Cl)cc2)n1
- AC50 [1]: 0.891 µM [falling, partial curve, poor fit]

SMILES: Cc1noc(C)c1C(=O)OCC(=O)N(C)C1(C#N)CCCCC1
- AC50 [1]: 9.2 µM [falling, partial curve, poor fit]

SMILES: CCOC(=O)C1=C(CC)Nc2ccccc2N=C1NC(=O)c1cc(C)on1
- AC50 [1]: 29.1 µM [rising, single point]

SMILES: COc1cccc(/C=C2\SC(=S)N(CCCC(=O)N3CCCCC3)C2=O)c1
- AC50 [1]: 22.4 µM [falling, partial curve, poor fit]

SMILES: Cc1cc(C)cc(NC(=O)C2CC3CCC2C3)c1 (stereo unspecified)
- AC50 [1]: 14.1 µM [rising, partial curve]

SMILES: Cc1ccccc1OCC(=O)O/N=C(\N)Cc1ccc(Cl)cc1
- AC50 [1]: 29.1 µM [falling, single point]

SMILES: COC(=O)/C=C(\C)N=Nc1c(O)[nH]c2ccccc12
- AC50 [1]: 3.98 µM [rising, full curve, poor fit]

SMILES: C/C=C/c1ccc(OCCCNC2CCCC2)c(OC)c1
- AC50 [1]: 0.146 µM [rising, full curve, poor fit]

SMILES: CCOC(=O)CCS(=O)(=O)c1nc(-c2ccccc2)cc(C(F)(F)F)n1
- AC50 [1]: 2.59 µM [falling, full curve]

SMILES: CCOc1cc(NC(=S)NCCOC)c(OCC)cc1NC(=O)c1cccs1
- AC50 [1]: 17.8 µM [falling, partial curve]

SMILES: Nc1nc(N)c(N=Nc2ccc(C(=O)O)cc2)c(N)n1
- AC50 [1]: 22.4 µM [falling, partial curve, poor fit]

SMILES: Cc1ccc2oc(Nc3nc(-c4ccccc4)cc(=O)[nH]3)nc2c1
- AC50 [1]: 8.91 µM [rising, partial curve]
- AC50 [2]: 2.82 µM [falling, partial curve, poor fit]

SMILES: O=C(NCC1COc2ccccc2O1)c1cc(S(=O)(=O)N2CCOCC2)ccc1F (stereo unspecified)
- AC50 [1]: 4.61 µM [rising, partial curve, poor fit]

SMILES: COc1cccc(/C=C/c2ccc3ccccc3n2)c1OC(C)=O
- AC50 [1]: 12.6 µM [falling, partial curve]

SMILES: COCCCn1c(O)c(/C=C2\N=C(C#N)C(=Nc3ccc(C)cc3)O2)sc1=S
- AC50 [1]: 3.16 µM [falling, single point]

SMILES: CC(=O)Nc1ccc(S(=O)(=O)NCCCN2CCN(Cc3ccccc3)CC2)cc1Cl
- AC50 [1]: 35.5 µM [falling, single point]

SMILES: COc1ccc(CNC(=O)C2CCN(C(=O)c3ccc(-c4ccccc4)cc3)CC2)cc1
- AC50 [1]: 35.5 µM [falling, single point]

SMILES: Cc1cccc(C(=O)Nc2ccccc2SCC2CSc3nc4ccccc4c(=O)n32)c1 (stereo unspecified)
- AC50 [1]: 2.59 µM [falling, full curve, poor fit]

SMILES: Cn1cc(/C=C2\SC(=O)N(c3ccc(O)cc3)C2=O)c2ccccc21
- AC50 [1]: 2.82 µM [falling, partial curve]
- AC50 [2]: 31.6 µM [rising, single point]

SMILES: O=C(NCc1ccccn1)c1ccc(N2CCCC2)c([N+](=O)[O-])c1
- AC50 [1]: 11.2 µM [rising, partial curve]

SMILES: COc1ccc(CNC(=O)c2c(Nc3ccccc3C)sc(C(=O)c3ccccc3)c2N)cc1
- AC50 [1]: 14.1 µM [falling, partial curve]
- AC50 [2]: 22.4 µM [falling, single point]

SMILES: O=C(CCNS(=O)(=O)c1ccc(Cl)cc1)Nc1ccncc1
- AC50 [1]: 35.5 µM [falling, single point]

SMILES: Cc1ccc(CN2C(=O)CCC2C(=O)NC2CCCC2)cc1 (stereo unspecified)
- AC50 [1]: 25.9 µM [rising, single point]

SMILES: COc1ccc(-c2coc3cc(O[C@@H]4O[C@H](CO)[C@@H](O)[C@H](O)[C@H]4O)c(OC)cc3c2=O)cc1
- AC50 [1]: 16.4 µM [rising, single point]

SMILES: COc1ccc(N2CCN(C(=S)NC(=O)c3cccs3)CC2)c([N+](=O)[O-])c1
- AC50 [1]: 17.8 µM [rising, single point]

SMILES: Cn1c(SCc2ccc(Br)cc2)nnc1-c1cccs1
- AC50 [1]: 3.16 µM [rising, partial curve, poor fit]

SMILES: COCCn1c(=O)[nH]c(=O)c2cc(C(=O)c3cc(Cl)ccc3O)cnc21
- AC50 [1]: 11.2 µM [falling, partial curve, poor fit]

SMILES: C/C(N)=C(/C#N)C(=O)CSc1nnc(COc2ccccc2Cl)o1
- AC50 [1]: 23.1 µM [rising, single point]

SMILES: Fc1ccc(NC(=S)N2CCCC2)cc1Cl
- AC50 [1]: 11.6 µM [rising, partial curve, poor fit]

SMILES: Cc1oc2c(CN3CCCC(C)C3)c(O)ccc2c(=O)c1-c1ccccc1 (stereo unspecified)
- AC50 [1]: 3.55 µM [falling, single point]

SMILES: CC(=Nc1ccccc1O)c1sc2ccccc2c1O
- AC50 [1]: 25.1 µM [falling, single point]

SMILES: C/C(CC(=O)NCc1ccccc1)=N\NC(=O)c1cnccn1
- AC50 [1]: 11.6 µM [falling, partial curve]

SMILES: Cc1ccc(-c2csc(NC(=O)c3cccc(N4C(=O)CCC4=O)c3)n2)o1
- AC50 [1]: 5.8 µM [falling, full curve]

SMILES: O=c1[nH]c(NCCO)nc2c1C1(CCCCC1)Cc1ccccc1-2
- AC50 [1]: 29.1 µM [falling, single point]

SMILES: CCOC(=O)N1CCN(C(=O)c2cc(COc3cccc(C(F)(F)F)c3)on2)CC1
- AC50 [1]: 35.5 µM [falling, single point]

SMILES: Cc1nnc(NC(=O)/C=C/c2ccco2)s1
- AC50 [1]: 29.1 µM [falling, single point]

SMILES: NC1=NC(c2ccccc2)N=C(Nc2ccccc2)N1 (stereo unspecified)
- AC50 [1]: 1.26 µM [falling, full curve, poor fit]

SMILES: Cc1nn(C)c(C)c1NC(=O)CSc1nc(C2CC2)nc2c1cnn2-c1ccccc1
- AC50 [1]: 6.31 µM [falling, partial curve, poor fit]

SMILES: CCOC(=O)c1nnc(-c2ccc(C)cc2)nc1Oc1ccccc1Cl
- AC50 [1]: 16.4 µM [falling, partial curve]

SMILES: COc1ccccc1CNC(=O)C(=O)NCC1CCCO1 (stereo unspecified)
- AC50 [1]: 18.4 µM [falling, partial curve]

SMILES: O=C(O)c1ccc(S(=O)(=O)N2CCCC2)cc1
- AC50 [1]: 35.5 µM [falling, single point]

SMILES: CCOC(=O)C1C(=O)OC(C)(C)C1C(C)C(=O)c1ccccc1 (stereo unspecified)
- AC50 [1]: 20.6 µM [rising, single point]

SMILES: Cc1ccc(NC(=O)c2ccc3c(=O)n4c(nc3c2)CCCCC4)nc1
- AC50 [1]: 18.4 µM [falling, single point]

SMILES: COc1cc(OC)c2c(-c3cccc(-c4ccc(CO)cc4)c3)cc(=O)oc2c1
- AC50 [1]: 2.06 µM [rising, partial curve]
- AC50 [2]: 1.84 µM [falling, partial curve, poor fit]

SMILES: Cc1cccc(Nc2nnc(SCC(=O)Nc3cccnc3Cl)s2)c1
- AC50 [1]: 6.51 µM [rising, single point]

SMILES: Fc1ccccc1COc1cccc(/C=N/n2cnnc2)c1
- AC50 [1]: 8.91 µM [rising, partial curve, poor fit]

SMILES: Cc1sc(NC(=S)NC(=O)c2ccco2)c(C(N)=O)c1C
- AC50 [1]: 0.708 µM [rising, full curve, poor fit]

SMILES: C#CCOCCOCCOCCNc1nc(N2CCN(C(=O)CCCCCCCCCCNC(=O)[C@H](CCCCN)n3cc(CCCC(=O)O)nn3)CC2)nc(N2CCN(C(=O)CCCCCCCCCCNC(=O)[C@H](CCCN=C(N)N)n3cc(C[C@@H](C)CC)nn3)CC2)n1
- AC50 [1]: 29.1 µM [rising, single point]

SMILES: COc1ccc(CC(NC(C)=O)C(=O)N2CCN(C(=O)Nc3ccc(Cl)cc3)CC2)cc1OC (stereo unspecified)
- AC50 [1]: 1.78 µM [rising, partial curve, poor fit]

SMILES: N#Cc1c(NC(=O)CSc2nnc(-c3ccccc3O)n2-c2ccccc2)sc2c1CCCC2
- AC50 [1]: 0.411 µM [rising, partial curve, poor fit]

SMILES: Fc1cccc(-c2cc3nc4c(c(NCc5ccco5)n3n2)CCCC4)c1
- AC50 [1]: 1.26 µM [falling, full curve, poor fit]
